These results are taken from paper PMC10994853.

No constants are given. Whether binding was seen depends on the method and setting. In cells and extracts the contact can be indirect. A yes stands for co-enrichment or nearness to the bait. Other partners may have been found.

In this assay the target is Twin-strep-tagged SprA (Flavobacterium johnsoniae). Description: affinity purification with mass spectrometry; Twin-strep–SprA complexes from ΔgldL backgrounds (alone or with ΔsprE, ΔskpA or sprA(Δnterm)); membranes solubilised in 1% LMNG, Strep-TactinXT, Superose 6 in 100 mM Tris-HCl pH 8.0, 150 mM NaCl, 1 mM EDTA, 0.01% LMNG, 4 °C; SDS–PAGE bands and whole samples identified by peptide fingerprinting.

B1: RemZ (Fjoh_0803) (protein, UniProt A5FLT3 1-1114)
chain: MDVQAWGGGGAGGGASGAVLDGRAAAGGGGGAYARSNITVAAGATLNASVAGTTTNALVSGAAVNGAAGGSSTILGFETSILALGGGGGGANNAGGTPAGGAGGSAASSVGNVSKLDGAAGGNGVTGAIGLLTVSGAGGTAGGGGGAGGAGVASVALGNGPGNAGTAPGGGGSGAMQSLLGGAQIGGSGAAGRVIITYTCPTYSITGISAANVCNSVGTTSVVTLTSSGGGLPIGPYVVTYNRSNPSGTGLTAIMNVTTPGTGTFTAAGLNVIGTSNITVTNLTSAACSSNISTNNVASLTVFAATVGGTLAGTATVCSGATSGTLTLSGQTGSIIKWESSVSPFTVWTTIPNTTNTYTSGALTETSQFRAVIQNGNCAVVNSSIATITVNPLPQGSLSANGPFCVTGSGQLTFTATAGTGPYTIVYKENGGADRTAANISSGVAFPTFTTPVTTTTVYTLVSVTGANTCSRSSGFTNNTATITVNSRIATPGFGTVTQPDCVTSTGSVVLTGLPAGSWTITQSGTASQTYNSSGTTYTISNLAVGNYTFTVQDAANCPSLATSTLTLIAPVVNIWNGTSWSKGSPPISTDVVRFSGNYSTTGNLSGCSLIVDSGFTVTVNSNHTLTISNAVTNNGGQLIFENNSSLLQTNNVTNVGNITYKRITPPVRRYDLTYWSSPITRTPPFTLYDLSPGTLADKYYSYDPVAGWVISFNGTQQMVPGRGYVVRAPQTNDLNTGANYLGAFVGVPNNGPISVSLGTAEAFQLLGNPYPSAIYADQFIANNSANLYGTLYFWTHNSLPSSSTPGGAQYNYDNNDYAVYNLSGSIIVGGMTGQGATTPGNQSAPLGYIAAGQGFFVVSKTAGNAVFTNSMRVAANNTQFYKTNKSAIERHRVWINLTNTQGAFKQLLIGYIEGATNFWDHNYDAITADANPHLDFYSINEGQNLVIQGRSLPFNESDVVPLGYRSAIAGEFSISLDHADGDLTNHAVYLEDKLTNTLHNLQTSNYTFNTAIGTFSDRFVIRYTTATLGTDDFENQTNSFYVSVKDKTIKLNSTEDVMREVSIFDISGKLLYNNKKVENTEFQVSNFQSGNQVLIVKVTLDNGNIITKKIVFN
In the case of B1, the binding result was “binds”.
